The values below come from PMC7244013.

Chains of the proteins cited; added tags and fusions are not shown. Lines headed by an entry give the natural chain unless they say otherwise; changes in a name come on top.
UniProt P05230: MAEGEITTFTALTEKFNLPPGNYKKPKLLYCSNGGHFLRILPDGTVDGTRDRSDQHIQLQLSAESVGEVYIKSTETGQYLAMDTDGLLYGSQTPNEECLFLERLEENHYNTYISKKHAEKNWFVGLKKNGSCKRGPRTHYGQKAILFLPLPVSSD
UniProt P09038: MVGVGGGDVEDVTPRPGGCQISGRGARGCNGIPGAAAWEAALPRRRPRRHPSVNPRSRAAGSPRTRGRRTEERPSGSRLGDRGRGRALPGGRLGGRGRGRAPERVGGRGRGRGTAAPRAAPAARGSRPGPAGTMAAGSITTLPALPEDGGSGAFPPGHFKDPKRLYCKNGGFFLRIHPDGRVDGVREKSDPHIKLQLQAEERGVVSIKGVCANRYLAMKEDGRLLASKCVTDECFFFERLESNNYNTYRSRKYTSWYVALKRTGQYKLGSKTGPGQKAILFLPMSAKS

Results are given in words; binding and its absence hold for the method and conditions named. Binding seen in cells or lysates may run through a third protein.

In one assay the target is myc-tagged FGF-1 (human) (UniProt P05230). Description: co-IP; HEK293T co-transfected with PLAC1 and one of six C-terminally myc-tagged FGFs; IP with anti-myc antibody, mouse serum as control; Western blot for PLAC1.
The next assay concerns the target myc-tagged FGF-2 (human) (UniProt P09038). The description is as above.

B1: PLAC1 (placenta enriched 1) (protein, UniProt Q9HBJ0 23-212)
chain: QSPMTVLCSIDWFMVTVHPFMLNNDVCVHFHELHLGLGCPPNHVQPHAYQFTYRVTECGIRAKAVSQDMVIYSTEIHYSSKGTPSKFVIPVSCAAPQKSPWLTKPCSMRVASKSRATAQKDEKCYEVFSLSQSSQRPNCDCPPCVFSEEEHTQVPCHQAGAQEAQPLQPSHFLDISEDWSLHTDDMIGSM
As for B1, the binding entry in the assay with myc-tagged FGF-1 (human) and in the assay with myc-tagged FGF-2 (human) was “no binding” each time.
